The list shows a part of the results. Most values lie at the level of the controls, where differences are scatter.
The targets below were run with CN[C@@H]1C[C@H]2O[C@@](C)([C@@H]1OC)n1c3ccccc3c3c4c(c5c6ccccc6n2c5c31)C(=O)NC4 [staurosporine] (assay: log2 fold change of tryptic peptide abundance, ligand vs vehicle (limited proteolysis) (log2 ratio); higher = more trypsin-susceptible (destabilized)). Details: ligand concentration: 20 uM; sample: K562 cleared lysate; digestion: 4 min, 22 C (HT-PELSA RT4min, Orbitrap Astral).

Protein sequences, listed by entry. Tags and fused reporters are not part of them. Lines headed by an entry give the natural chain unless they say otherwise; changes in a name come on top.
UniProt Q9H0H0, whole entry: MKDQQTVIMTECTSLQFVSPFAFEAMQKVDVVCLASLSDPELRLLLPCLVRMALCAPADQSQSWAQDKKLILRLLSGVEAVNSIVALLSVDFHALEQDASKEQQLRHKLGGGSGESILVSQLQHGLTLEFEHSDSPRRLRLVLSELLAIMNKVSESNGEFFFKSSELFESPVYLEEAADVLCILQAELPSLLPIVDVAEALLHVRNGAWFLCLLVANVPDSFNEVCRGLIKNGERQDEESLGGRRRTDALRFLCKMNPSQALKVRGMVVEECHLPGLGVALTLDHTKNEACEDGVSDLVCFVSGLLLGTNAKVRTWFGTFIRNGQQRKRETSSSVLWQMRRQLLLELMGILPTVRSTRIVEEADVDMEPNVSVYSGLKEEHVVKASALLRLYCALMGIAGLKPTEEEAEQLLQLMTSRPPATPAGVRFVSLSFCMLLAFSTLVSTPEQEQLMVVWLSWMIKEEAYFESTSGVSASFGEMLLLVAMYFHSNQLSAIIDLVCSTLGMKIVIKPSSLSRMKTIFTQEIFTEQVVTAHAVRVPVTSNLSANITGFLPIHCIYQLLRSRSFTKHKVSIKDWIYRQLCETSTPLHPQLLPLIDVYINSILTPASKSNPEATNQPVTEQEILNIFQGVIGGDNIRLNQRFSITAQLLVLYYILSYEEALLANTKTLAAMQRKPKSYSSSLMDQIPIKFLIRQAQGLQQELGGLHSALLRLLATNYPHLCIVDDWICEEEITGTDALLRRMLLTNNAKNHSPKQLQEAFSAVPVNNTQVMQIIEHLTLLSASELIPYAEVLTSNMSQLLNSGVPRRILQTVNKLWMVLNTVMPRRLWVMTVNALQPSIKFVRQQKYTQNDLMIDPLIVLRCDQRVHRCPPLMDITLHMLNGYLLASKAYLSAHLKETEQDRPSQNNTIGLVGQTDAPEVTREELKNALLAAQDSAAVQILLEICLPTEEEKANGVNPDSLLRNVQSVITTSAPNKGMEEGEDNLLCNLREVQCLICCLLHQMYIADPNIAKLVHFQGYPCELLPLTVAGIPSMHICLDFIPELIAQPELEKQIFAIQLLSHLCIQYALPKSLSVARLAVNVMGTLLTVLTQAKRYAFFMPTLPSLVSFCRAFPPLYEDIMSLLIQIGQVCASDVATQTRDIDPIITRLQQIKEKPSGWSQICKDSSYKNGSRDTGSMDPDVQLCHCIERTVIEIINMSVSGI
UniProt Q9GZR1: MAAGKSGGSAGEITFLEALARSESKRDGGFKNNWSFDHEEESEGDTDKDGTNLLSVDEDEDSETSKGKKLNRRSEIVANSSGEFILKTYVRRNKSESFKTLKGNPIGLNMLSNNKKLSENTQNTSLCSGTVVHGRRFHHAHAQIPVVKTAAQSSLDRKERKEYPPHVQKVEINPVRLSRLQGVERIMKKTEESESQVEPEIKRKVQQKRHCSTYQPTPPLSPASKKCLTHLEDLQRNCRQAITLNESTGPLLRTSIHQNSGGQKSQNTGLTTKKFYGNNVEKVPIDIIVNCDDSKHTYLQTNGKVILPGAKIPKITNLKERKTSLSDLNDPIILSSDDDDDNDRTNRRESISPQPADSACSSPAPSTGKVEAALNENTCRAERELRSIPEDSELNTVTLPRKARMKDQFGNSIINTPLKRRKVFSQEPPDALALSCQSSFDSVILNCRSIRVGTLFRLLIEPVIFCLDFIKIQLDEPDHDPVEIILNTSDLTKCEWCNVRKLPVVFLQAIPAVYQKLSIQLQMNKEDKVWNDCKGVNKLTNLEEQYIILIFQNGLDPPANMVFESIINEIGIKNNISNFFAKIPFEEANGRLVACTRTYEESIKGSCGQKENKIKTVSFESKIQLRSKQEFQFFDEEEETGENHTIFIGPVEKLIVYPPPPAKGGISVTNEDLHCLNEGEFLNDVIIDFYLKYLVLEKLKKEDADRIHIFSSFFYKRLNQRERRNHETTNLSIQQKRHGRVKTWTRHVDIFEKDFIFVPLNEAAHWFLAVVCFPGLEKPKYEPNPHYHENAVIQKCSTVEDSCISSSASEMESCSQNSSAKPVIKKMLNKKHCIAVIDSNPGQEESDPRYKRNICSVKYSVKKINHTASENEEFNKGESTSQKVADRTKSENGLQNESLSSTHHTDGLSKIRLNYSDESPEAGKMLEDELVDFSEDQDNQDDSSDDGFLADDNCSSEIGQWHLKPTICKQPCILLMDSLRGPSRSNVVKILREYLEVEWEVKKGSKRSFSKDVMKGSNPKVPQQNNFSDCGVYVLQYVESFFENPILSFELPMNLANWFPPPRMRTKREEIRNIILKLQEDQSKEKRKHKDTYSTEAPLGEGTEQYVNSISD
UniProt Q9BXS5: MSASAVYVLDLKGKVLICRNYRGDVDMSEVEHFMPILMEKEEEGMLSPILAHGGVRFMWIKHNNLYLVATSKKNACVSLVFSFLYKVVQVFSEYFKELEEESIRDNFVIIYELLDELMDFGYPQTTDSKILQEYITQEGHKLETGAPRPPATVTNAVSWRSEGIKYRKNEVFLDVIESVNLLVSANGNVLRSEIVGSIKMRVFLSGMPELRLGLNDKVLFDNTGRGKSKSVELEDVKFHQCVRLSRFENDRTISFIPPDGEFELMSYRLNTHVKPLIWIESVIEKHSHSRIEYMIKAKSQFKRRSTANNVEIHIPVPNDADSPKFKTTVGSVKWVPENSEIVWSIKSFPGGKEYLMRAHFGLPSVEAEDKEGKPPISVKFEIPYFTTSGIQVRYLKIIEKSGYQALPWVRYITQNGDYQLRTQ
UniProt Q9H3L0: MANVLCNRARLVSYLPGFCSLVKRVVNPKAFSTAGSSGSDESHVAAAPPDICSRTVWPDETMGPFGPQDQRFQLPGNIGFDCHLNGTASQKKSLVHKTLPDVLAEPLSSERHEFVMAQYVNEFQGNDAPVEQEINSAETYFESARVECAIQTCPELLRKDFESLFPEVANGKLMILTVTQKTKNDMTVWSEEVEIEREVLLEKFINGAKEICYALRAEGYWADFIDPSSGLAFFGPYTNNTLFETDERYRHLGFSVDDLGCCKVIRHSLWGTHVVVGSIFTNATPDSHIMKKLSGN
UniProt Q9H2X6: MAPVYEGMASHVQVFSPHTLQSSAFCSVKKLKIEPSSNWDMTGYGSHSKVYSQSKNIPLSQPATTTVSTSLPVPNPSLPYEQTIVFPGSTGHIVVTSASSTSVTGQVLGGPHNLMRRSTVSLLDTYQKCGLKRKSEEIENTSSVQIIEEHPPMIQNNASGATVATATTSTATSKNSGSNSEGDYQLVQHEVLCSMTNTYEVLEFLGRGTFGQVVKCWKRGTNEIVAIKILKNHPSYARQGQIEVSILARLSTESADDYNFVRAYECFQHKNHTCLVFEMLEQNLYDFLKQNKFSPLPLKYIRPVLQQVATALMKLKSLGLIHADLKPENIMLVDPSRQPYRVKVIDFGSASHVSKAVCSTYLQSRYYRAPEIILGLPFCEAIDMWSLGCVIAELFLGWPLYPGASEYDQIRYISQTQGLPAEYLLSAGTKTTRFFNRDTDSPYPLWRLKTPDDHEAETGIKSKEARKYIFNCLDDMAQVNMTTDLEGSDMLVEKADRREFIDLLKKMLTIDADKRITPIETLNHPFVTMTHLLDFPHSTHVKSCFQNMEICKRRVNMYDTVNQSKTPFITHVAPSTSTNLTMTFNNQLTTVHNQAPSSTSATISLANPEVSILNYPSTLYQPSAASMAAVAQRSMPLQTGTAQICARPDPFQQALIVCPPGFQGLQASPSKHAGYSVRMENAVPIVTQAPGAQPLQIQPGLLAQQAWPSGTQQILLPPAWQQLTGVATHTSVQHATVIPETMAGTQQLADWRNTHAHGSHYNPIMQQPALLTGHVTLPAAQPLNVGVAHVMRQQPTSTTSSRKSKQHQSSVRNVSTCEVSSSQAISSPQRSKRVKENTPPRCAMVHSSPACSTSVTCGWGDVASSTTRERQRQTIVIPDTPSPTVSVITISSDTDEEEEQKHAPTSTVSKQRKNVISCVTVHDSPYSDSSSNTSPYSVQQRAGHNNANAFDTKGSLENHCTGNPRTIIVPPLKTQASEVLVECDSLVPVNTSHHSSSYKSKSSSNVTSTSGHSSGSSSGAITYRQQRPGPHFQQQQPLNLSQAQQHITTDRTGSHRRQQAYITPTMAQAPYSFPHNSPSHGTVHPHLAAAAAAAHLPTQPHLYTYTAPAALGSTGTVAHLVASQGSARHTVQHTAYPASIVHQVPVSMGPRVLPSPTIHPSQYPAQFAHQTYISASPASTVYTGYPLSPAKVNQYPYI
UniProt Q9H0Y0: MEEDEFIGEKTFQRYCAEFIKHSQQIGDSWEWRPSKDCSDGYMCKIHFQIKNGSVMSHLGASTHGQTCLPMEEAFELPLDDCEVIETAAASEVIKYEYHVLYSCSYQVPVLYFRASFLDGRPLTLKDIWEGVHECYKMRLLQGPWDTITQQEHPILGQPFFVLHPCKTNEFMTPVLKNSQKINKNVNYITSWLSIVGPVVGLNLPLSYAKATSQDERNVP
UniProt Q9H0J9: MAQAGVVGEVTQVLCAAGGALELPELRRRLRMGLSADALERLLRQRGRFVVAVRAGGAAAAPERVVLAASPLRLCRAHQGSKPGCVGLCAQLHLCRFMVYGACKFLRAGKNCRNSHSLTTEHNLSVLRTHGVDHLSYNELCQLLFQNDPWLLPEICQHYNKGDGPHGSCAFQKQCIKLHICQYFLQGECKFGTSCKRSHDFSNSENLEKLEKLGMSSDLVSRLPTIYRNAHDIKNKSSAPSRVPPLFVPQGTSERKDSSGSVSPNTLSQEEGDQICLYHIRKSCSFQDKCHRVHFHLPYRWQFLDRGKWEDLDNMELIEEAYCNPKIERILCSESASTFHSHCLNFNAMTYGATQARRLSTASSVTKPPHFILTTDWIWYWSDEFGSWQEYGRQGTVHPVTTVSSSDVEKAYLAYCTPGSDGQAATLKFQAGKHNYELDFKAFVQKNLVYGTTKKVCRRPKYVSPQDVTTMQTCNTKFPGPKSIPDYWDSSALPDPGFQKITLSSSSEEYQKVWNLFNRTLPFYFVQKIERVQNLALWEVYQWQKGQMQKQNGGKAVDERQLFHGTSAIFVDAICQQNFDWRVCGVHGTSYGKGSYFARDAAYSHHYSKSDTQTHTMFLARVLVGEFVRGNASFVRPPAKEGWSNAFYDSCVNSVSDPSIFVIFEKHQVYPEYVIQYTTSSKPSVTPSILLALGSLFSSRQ
UniProt Q9BXS6: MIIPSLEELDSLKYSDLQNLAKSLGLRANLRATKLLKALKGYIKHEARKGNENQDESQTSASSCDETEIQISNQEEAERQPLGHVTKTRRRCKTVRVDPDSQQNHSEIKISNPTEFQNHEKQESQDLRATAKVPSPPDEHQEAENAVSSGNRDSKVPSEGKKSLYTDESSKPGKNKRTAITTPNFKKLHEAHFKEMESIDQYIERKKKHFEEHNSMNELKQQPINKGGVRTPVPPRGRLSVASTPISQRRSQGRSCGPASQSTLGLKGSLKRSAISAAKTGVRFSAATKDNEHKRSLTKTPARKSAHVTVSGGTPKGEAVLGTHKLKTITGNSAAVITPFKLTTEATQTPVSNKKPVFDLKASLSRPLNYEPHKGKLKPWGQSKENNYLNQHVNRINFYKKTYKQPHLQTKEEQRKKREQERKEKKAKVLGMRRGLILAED
UniProt Q9BY43: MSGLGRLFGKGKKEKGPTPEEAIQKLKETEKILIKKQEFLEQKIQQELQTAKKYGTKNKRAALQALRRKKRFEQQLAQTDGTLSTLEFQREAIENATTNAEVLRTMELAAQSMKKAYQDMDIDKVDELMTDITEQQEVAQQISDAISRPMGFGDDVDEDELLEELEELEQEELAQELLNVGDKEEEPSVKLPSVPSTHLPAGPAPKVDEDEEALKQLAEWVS
UniProt Q9BXC9: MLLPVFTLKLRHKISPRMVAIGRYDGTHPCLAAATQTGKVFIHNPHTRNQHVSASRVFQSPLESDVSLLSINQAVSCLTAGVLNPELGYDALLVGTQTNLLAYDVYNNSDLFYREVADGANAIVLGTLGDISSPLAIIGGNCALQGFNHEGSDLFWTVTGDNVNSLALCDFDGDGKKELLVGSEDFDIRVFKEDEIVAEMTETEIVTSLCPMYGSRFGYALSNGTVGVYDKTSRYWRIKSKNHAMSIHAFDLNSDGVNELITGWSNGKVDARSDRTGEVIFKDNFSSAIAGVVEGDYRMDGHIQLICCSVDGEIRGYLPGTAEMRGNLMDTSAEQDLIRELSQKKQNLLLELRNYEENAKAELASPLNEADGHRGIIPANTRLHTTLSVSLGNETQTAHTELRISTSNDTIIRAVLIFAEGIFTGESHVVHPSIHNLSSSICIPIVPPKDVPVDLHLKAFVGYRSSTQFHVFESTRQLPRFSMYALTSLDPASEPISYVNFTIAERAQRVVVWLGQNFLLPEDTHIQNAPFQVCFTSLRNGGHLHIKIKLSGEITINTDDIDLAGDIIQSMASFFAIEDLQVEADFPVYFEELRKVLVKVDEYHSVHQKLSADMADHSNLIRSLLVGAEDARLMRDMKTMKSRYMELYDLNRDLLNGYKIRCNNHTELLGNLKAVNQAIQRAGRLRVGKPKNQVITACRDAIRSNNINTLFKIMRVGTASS

Target	log2 fold change
FANCD2 (peptide sequence: QLVMDKLSSIR, peptide start residue: 264) (UniProt Q9BXW9)	0.356
INTS2 (peptide sequence: LLLPCLVR, peptide start residue: 44) (UniProt Q9H0H0)	0.07
UniProt Q9BYV8 (peptide sequence: IIILYDDDER, peptide start residue: 221)	-0.247
PDCL3 (peptide sequence: MQDPNADTEWNDILR, peptide start residue: 1) (UniProt Q9H2J4)	-0.241
ZNF407 (peptide sequence: GVQEDPVLGNK, peptide start residue: 1296) (UniProt Q9C0G0)	-0.479
PNN (peptide sequence: KMNALFEGR, peptide start residue: 262) (UniProt Q9H307)	-0.295
SENP6 (peptide sequence: KFYGNNVEKVPIDIIVNCDDSK, peptide start residue: 274) (UniProt Q9GZR1)	0.345
MAF1 (peptide sequence: SQGGEEEGPLSDK, peptide start residue: 75) (UniProt Q9H063)	0.466
UniProt Q9GZT3 (peptide sequence: LPQTSDDEKK, peptide start residue: 98)	0.195
UniProt Q9H320 (peptide sequence: SSSQPSPSDPK, peptide start residue: 22)	-0.0896
CYSTM1 (peptide sequence: TTVYVVEDQRR, peptide start residue: 61) (UniProt Q9H1C7)	-0.134
UniProt Q9BYG3 (peptide sequence: VSGTLDTPEK, peptide start residue: 217)	-0.152
AP1M1 (peptide sequence: ILQEYITQEGHK, peptide start residue: 130) (UniProt Q9BXS5)	-0.598
MMADHC (peptide sequence: LVSYLPGFCSLVK, peptide start residue: 11) (UniProt Q9H3L0)	-0.371
UniProt Q9BYG4 (peptide sequence: VPGIFISR, peptide start residue: 189)	-0.107
HIPK2 (peptide sequence: TIIVPPLK, peptide start residue: 984) (UniProt Q9H2X6)	-0.294
TBL1XR1 (peptide sequence: EGGQDVPSNK, peptide start residue: 217) (UniProt Q9BZK7)	-0.577
UniProt Q9H330 (peptide sequence: AVGPSGGGGETPR, peptide start residue: 26)	-0.0016
GHITM (peptide sequence: VATMLATGGNR, peptide start residue: 333) (UniProt Q9H3K2)	0.472
UniProt Q9BYU1 (peptide sequence: MKPALFSVLCEIKEK, peptide start residue: 83)	-0.0992
ATG10 (peptide sequence: ASFLDGRPLTLK, peptide start residue: 115) (UniProt Q9H0Y0)	-0.164
KLC2 (peptide sequence: VDSPTVNTTLR, peptide start residue: 443) (UniProt Q9H0B6)	0.201
PARP12 (peptide sequence: VVLAASPLR, peptide start residue: 65) (UniProt Q9H0J9)	0.447
NUSAP1 (peptide sequence: EMESIDQYIERK, peptide start residue: 195) (UniProt Q9BXS6)	0.327
CHMP4A (peptide sequence: AALQALRR, peptide start residue: 61) (UniProt Q9BY43)	-0.676
OSBPL11 (peptide sequence: VVLPTFILEKR, peptide start residue: 386) (UniProt Q9BXB4)	0.847
HELZ2 (peptide sequence: ELLDESQK, peptide start residue: 1077) (UniProt Q9BYK8)	-0.288
UniProt Q9BXC9 (peptide sequence: SLLVGAEDAR, peptide start residue: 623)	0.498
SLC4A1AP (peptide sequence: LPPKRPELPPTLMR, peptide start residue: 627) (UniProt Q9BWU0)	-0.675

Individual results from the results shown:
log2 fold change, NUSAP1 (peptide sequence: EMESIDQYIERK, peptide start residue: 195) (UniProt Q9BXS6) reads 0.327
log2 fold change, HIPK2 (peptide sequence: TIIVPPLK, peptide start residue: 984) (UniProt Q9H2X6) reads -0.294
